Measurements reported in PubChem BioAssay AID743121 (NCATS, 2013)
The whole screen tested about 26,000 reagents; this is a part drawn at random. In the full data, 167 (0.63%) are marked active. 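Calls are per gene from RSA p-values that are not deposited; an individual active-marked siRNA can sensitise only weakly.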 Reagents against one gene are numbered here. Further read-outs or replicates are left out here.

- Test: 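Genes whose silencing strengthens cell killing by camptothecin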 (primary screen)
- Cell system: MDA-MB-231 cells, a human breast cancer line
- Knock-down reagent: single siRNA against human genes, 20 nM siRNA (0.8 pmol per well)
- Timing: 120 h (drug added 48 h after transfection, read 72 h later)
- Conditions: camptothecin 20 nM (about EC30) for 72 h; vehicle 0.1% DMSO in parallel plates
- Read-out: 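Cell viability by ATP luminescence (CellTiter-Glo) as % of non-targeting siRNA wells, and the log2 ratio of viability without drug over viability with camptothecin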
- Reading the numbers: log2 vehicle/camptothecin viability: higher = stronger sensitisation to camptothecin; viability with camptothecin: higher = more viable cells
- Call rule: 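Each gene scored by redundant siRNA activity (RSA) over its individual siRNA ratios; a gene is called active at p < 0.001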

For MICA #1, what does the deposit list?
log2 vehicle/camptothecin viability: -0.0458; viability with camptothecin (% of control): 99.2; Call: inactive

How did the screen score MICA #2?
log2 vehicle/camptothecin viability: 0.0728; viability with camptothecin (% of control): 92; Call: inactive

Which result is listed for MICA #3?
log2 vehicle/camptothecin viability: -0.237; viability with camptothecin (% of control): 58.6; Call: inactive

Which result is listed for CXCR4 #1?
log2 vehicle/camptothecin viability: -0.397; viability with camptothecin (% of control): 118; Call: inactive

With CXCR4 #2, what does the deposit list?
log2 vehicle/camptothecin viability: -0.397; viability with camptothecin (% of control): 80.5; Call: inactive

How did the screen score CXCR4 #3?
log2 vehicle/camptothecin viability: -0.292; viability with camptothecin (% of control): 113; Call: inactive

How did the screen score CXCR4 #4?
log2 vehicle/camptothecin viability: 0.154; viability with camptothecin (% of control): 97; Call: inactive

With ARSH #1, how do the results read?
log2 vehicle/camptothecin viability: -0.187; viability with camptothecin (% of control): 58.4; Call: inactive

With ARSH #2, how do the results read?
log2 vehicle/camptothecin viability: -0.273; viability with camptothecin (% of control): 93.7; Call: inactive

What is on record for ARSH #3?
log2 vehicle/camptothecin viability: -0.09; viability with camptothecin (% of control): 95.9; Call: inactive

With CASP8 #1, how do the results read?
log2 vehicle/camptothecin viability: -0.312; viability with camptothecin (% of control): 43.2; Call: inactive

For CASP8 #2, what does the deposit list?
log2 vehicle/camptothecin viability: -0.109; viability with camptothecin (% of control): 74.3; Call: inactive

With CASP8 #3, what does the deposit list?
log2 vehicle/camptothecin viability: -0.654; viability with camptothecin (% of control): 124; Call: inactive

For CASP8 #4, how do the results read?
log2 vehicle/camptothecin viability: -0.215; viability with camptothecin (% of control): 122; Call: inactive

What is on record for TENM4 #1?
log2 vehicle/camptothecin viability: -0.216; viability with camptothecin (% of control): 118; Call: inactive

Which result is listed for TENM4 #2?
log2 vehicle/camptothecin viability: -0.0743; viability with camptothecin (% of control): 90.7; Call: inactive

Which result is listed for TENM4 #3?
log2 vehicle/camptothecin viability: -0.0239; viability with camptothecin (% of control): 77.5; Call: inactive

For GPR62 #1, what does the deposit list?
log2 vehicle/camptothecin viability: -0.189; viability with camptothecin (% of control): 87.1; Call: inactive

For GPR62 #2, how do the results read?
log2 vehicle/camptothecin viability: 0.109; viability with camptothecin (% of control): 80; Call: inactive

For GPR62 #3, what does the deposit list?
log2 vehicle/camptothecin viability: -0.139; viability with camptothecin (% of control): 98.1; Call: inactive

With GPR62 #4, what does the deposit list?
log2 vehicle/camptothecin viability: -0.508; viability with camptothecin (% of control): 39.3; Call: inactive

With CHRNA6 #1, what does the deposit list?
log2 vehicle/camptothecin viability: -0.0827; viability with camptothecin (% of control): 41.7; Call: inactive

What did the screen give for CHRNA6 #2?
log2 vehicle/camptothecin viability: -0.233; viability with camptothecin (% of control): 93.1; Call: inactive

For CHRNA6 #3, what was measured?
log2 vehicle/camptothecin viability: -0.0458; viability with camptothecin (% of control): 108; Call: inactive

Which result is listed for CHRNA6 #4?
log2 vehicle/camptothecin viability: -0.00343; viability with camptothecin (% of control): 88; Call: inactive
